The list shows only some results of the screen, not a fair sample: it is rich in T/C values a quarter to a half above the control, in often repeated tests (any T/C) and in doses without a T/C. Further doses and runs are listed elsewhere. T/C gives the treated animals as a percentage of the vehicle group. Schedules are NCI's codes, read here as Q, the interval in days (D) or hours (H), X, the number of doses. Some T/C values carry the count of animals alive at the toxicity check (mostly the fifth day); where none is given, no animal had died by that day. Some doses have a count of surviving animals in place of a T/C: the source files T/C as zero there, which appears to mark a toxic dose or a test without result, not a measured value. Counts of survivors are from the toxicity check (mostly the fifth day) where no day follows; animals may have died later. Some entries hold several experiments; the results are listed from low to high.
Test system: CD8F1 mice, subcutaneous mammary adenocarcinoma, T/C%
Test: NCI In Vivo Anticancer Drug Screen. Data for tumor model Mammary Adenocarcinoma CD8F1 (subcutaneous) in CD8F1
Conditions: higher T/C = larger tumour
How it was run: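 Ratio of treated to vehicle-control outcome, based on either survival or tumor size, in mice bearing transplantable tumors given the test compound.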

[1] = T/C endpoint: median tumor weight change, dose: 40.0 mg/kg/injection, schedule: Q01DX001 (ip), vehicle: saline with Tween-80
[2] = T/C endpoint: median tumor weight change, dose: 500.0 mg/kg/injection, schedule: Q01DX001 (ip), vehicle: saline with Tween-80
[3] = T/C endpoint: median tumor weight change, dose: 125.0 mg/kg/injection, schedule: Q01DX001 (ip), vehicle: saline with Tween-80, evaluated on day 29
[4] = T/C endpoint: median tumor weight (est.), dose: 50.0 mg/kg/injection, schedule: Q07DX005 (ip), vehicle: saline with Tween-80
[5] = T/C endpoint: median tumor weight change, dose: 1000.0 mg/kg/injection, schedule: Q01DX001 (ip), vehicle: saline with Tween-80

With `CCOC(=O)NC1=C(N2CC2)C(=O)C(NC(=O)OCC)=C(N2CC2)C1=O` the survivor count (T/C endpoint: median tumor weight change, dose: 20.0 mg/kg/injection, schedule: Q01DX001 (ip), vehicle: saline with Tween-80) was 5 of 10 on day 28, the survivor count [1] was 0 of 10 on day 28 and 5 of 10 on day 28 and the survivor count (T/C endpoint: median tumor weight change, dose: 40.0 mg/kg/injection, schedule: Q01DX001 (ip), vehicle: saline) was 4 of 10 on day 39. The survivor count (T/C endpoint: median tumor weight change, dose: 40.0 mg/kg/injection, schedule: Q01DX001 (ip), vehicle: suspension in saline) was 5 of 10 on day 32.
In the case of `N#CC(=C1SCS1)[N+](=O)[O-]`, the T/C (T/C endpoint: median tumor weight change, dose: 3.75 mg/kg/injection, schedule: Q01DX001 (ip), vehicle: saline with Tween-80, evaluated on day 35) is reported as 148 % of control.
In the case of `C/C(=N\NC(N)=O)c1cccc(/C(C)=N/NC(N)=O)n1`, the survivor count [2] is reported as 2 of 10 on day 30.
`O=C(O)C(CSC(c1ccccc1)(c1ccccc1)c1ccccc1)N=Cc1cccs1` (stereo unspecified) was tested, and the survivor count (T/C endpoint: median tumor weight change, dose: 500.0 mg/kg/injection, schedule: Q01DX001 (ip), vehicle: saline) was 5 of 10 on day 31, the survivor count (T/C endpoint: median tumor weight change, dose: 500.0 mg/kg/injection, schedule: Q01DX001 (ip), vehicle: suspension in saline) was 1 of 10 on day 35 and the survivor count (T/C endpoint: median tumor weight change, dose: 1000.0 mg/kg/injection, schedule: Q01DX001 (ip), vehicle: saline) was 0 of 10 on day 31. The survivor count (T/C endpoint: median tumor weight change, dose: 1000.0 mg/kg/injection, schedule: Q01DX001 (ip), vehicle: suspension in saline) was 0 of 10 on day 35 and the survivor count (T/C endpoint: median tumor weight change, dose: 2000.0 mg/kg/injection, schedule: Q01DX001 (ip), vehicle: saline) was 0 of 10 on day 31.
With `CC1OC(OC2CC(O)(C(=O)CO)Cc3c(O)c4c(c(O)c32)C(=O)c2ccccc2C4=O)CC(N)C1O` (stereo unspecified) the T/C (T/C endpoint: mean tumor weight, dose: 0.25 mg/kg/injection, schedule: Q07DX006 (ip), vehicle: saline, evaluated on day 40) was 142 % of control and the survivor count (T/C endpoint: median tumor weight change, dose: 10.0 mg/kg/injection, schedule: Q01DX001 (ip), vehicle: water) was 2 of 10 on day 35.
For `Nc1nc(-c2cccc3ccccc23)cc2ccccc12`, the T/C (T/C endpoint: median tumor weight (est.), dose: 25.0 mg/kg/injection, schedule: Q07DX005 (ip), vehicle: saline with Tween-80, evaluated on day 30) was 145 % of control, the survivor count (T/C endpoint: median tumor weight (est.), dose: 400.0 mg/kg/injection, schedule: Q07DX005 (ip), vehicle: saline with Tween-80) was 6 of 10 on day 30 and the survivor count (T/C endpoint: median tumor weight (est.), dose: 800.0 mg/kg/injection, schedule: Q07DX005 (ip), vehicle: saline with Tween-80) was 2 of 10 on day 30.
`CN(C=O)C(C(=O)Nc1cccc2c(OC(=O)C(N(C)C=O)(N(C)C=O)N(C)C=O)c(N=Nc3ccc(S(=O)(=O)Nc4nccs4)cc3)cc(N=Nc3ccc(S(=O)(=O)Nc4nccs4)cc3)c12)(N(C)C=O)N(C)C=O` (tested in a mixture with another compound) was tested, and the T/C [3] was 147 % of control and the T/C (T/C endpoint: median tumor weight change, dose: 500.0 mg/kg/injection, schedule: Q01DX001 (ip), vehicle: saline with Tween-80, evaluated on day 29) was 139 % of control.
`CC[N+](CC)(CC)CC` was tested, and the survivor count [1] was 4 of 10 on day 43 and 6 of 10 on day 28, the survivor count (T/C endpoint: median tumor weight change, dose: 60.0 mg/kg/injection, schedule: Q01DX001 (ip), vehicle: saline with Tween-80) was 0 of 10 on day 34, 3 of 10 on day 27, 5 of 10 on day 28, 6 of 10 on day 28 and the survivor count (T/C endpoint: median tumor weight change, dose: 90.0 mg/kg/injection, schedule: Q01DX001 (ip), vehicle: saline with Tween-80) was 0 of 10 on day 28 and 1 of 10 on day 28. For the same molecule, the survivor count (T/C endpoint: median tumor weight change, dose: 120.0 mg/kg/injection, schedule: Q01DX001 (ip), vehicle: saline with Tween-80) was 2 of 10 on day 27, the survivor count (T/C endpoint: median tumor weight change, dose: 133.0 mg/kg/injection, schedule: Q01DX001 (ip), vehicle: saline with Tween-80) was 0 of 10 on day 28 and the survivor count (T/C endpoint: median tumor weight change, dose: 200.0 mg/kg/injection, schedule: Q01DX001 (ip), vehicle: saline with Tween-80) was 0 of 10 on day 28. The survivor count (T/C endpoint: median tumor weight change, dose: 300.0 mg/kg/injection, schedule: Q01DX001 (ip), vehicle: saline with Tween-80) was 0 of 10 on day 28.
In the case of `C/C=C(\Cl)C1=CC(=O)C23CC2C2(C)COC1(O)C3(O)O2` (stereo unspecified), the T/C (T/C endpoint: median tumor weight (est.), dose: 12.0 mg/kg/injection, schedule: Q07DX005 (ip), vehicle: saline with Tween-80, evaluated on day 32) is reported as 149 % of control [7 of 10 alive].
In the case of `O=C(Nc1nncs1)c1ccncc1`, the T/C (T/C endpoint: median tumor weight (est.), dose: 12.5 mg/kg/injection, schedule: Q07DX005 (ip), vehicle: saline with Tween-80, evaluated on day 30) is reported as 128 % of control.
`COC(=O)[C@@H]1c2cc3c(c(O)c2[C@@H](OC)C[C@@]1(C)O)C(=O)c1c(O)cc2c(c1C3=O)OC1O[C@@]2(C)[C@H](O)[C@@H](N(C)C)[C@@H]1O` was tested, and the T/C (T/C endpoint: median tumor weight (est.), dose: 12.5 mg/kg/injection, schedule: Q07DX005 (ip), vehicle: suspension in saline, evaluated on day 30) was 127 % of control [9 of 10 alive].
`CC(C)NCC(O)COc1cccc2ccccc12` (stereo unspecified) was tested, and the T/C (T/C endpoint: mean tumor weight, dose: 16.0 mg/kg/injection, schedule: Q07DX007 (ip), vehicle: Klucel (hydroxypropylcellulose) (HPC), evaluated on day 46) was 127 % of control [9 of 10 alive].
For `O=C1C2CC=CCC2C(=O)N1SC(Cl)(Cl)Cl` (stereo unspecified), the survivor count [4] was 4 of 10 on day 30 and the survivor count (T/C endpoint: median tumor weight (est.), dose: 100.0 mg/kg/injection, schedule: Q07DX005 (ip), vehicle: saline with Tween-80) was 1 of 10 on day 30.
`Cn1cnc([N+](=O)[O-])c1[Se]c1nc(N)nc2nc[nH]c12` was tested, and the T/C (T/C endpoint: median tumor weight (est.), dose: 100.0 mg/kg/injection, schedule: Q07DX005 (ip), vehicle: water, evaluated on day 30) was 142 % of control.
`C=C(C)C(=NC(C)(C)C)Nc1ccccc1` was tested, and the survivor count [2] was 0 of 10 on day 36 and the survivor count [5] was 1 of 10 on day 36.
In the case of `CC1(C)CC2(C)OC2C2(C1)N=NC(=Nc1ccccc1)O2` (stereo unspecified), the survivor count [5] is reported as 5 of 10 on day 38 and the survivor count (T/C endpoint: median tumor weight change, dose: 2000.0 mg/kg/injection, schedule: Q01DX001 (ip), vehicle: saline with Tween-80) is reported as 3 of 10 on day 38.
In the case of `CCCCCCCC(=O)[O][Hg][CH2]C1COC([CH2][Hg][O]C(=O)CCCCCCC)CO1` (stereo unspecified), the survivor count [4] is reported as 4 of 10 on day 30.
With `COC12C(COC(=O)NCCO)C3=C(C(=O)C(C)=C(N)C3=O)N1CC1NC12` (stereo unspecified) the survivor count (T/C endpoint: median tumor weight change, dose: 200.0 mg/kg/injection, schedule: Q01DX001 (ip), vehicle: Klucel (hydroxypropylcellulose) (HPC)) was 1 of 10 on day 31.
`COc1cc2cc3cc4cc(OC)c(OC)cc4c(C)[n+]3cc2cc1OC` (tested in a mixture with another compound) was tested, and the survivor count (T/C endpoint: median tumor weight (est.), dose: 400.0 mg/kg/injection, schedule: Q07DX005 (ip), vehicle: saline) was 1 of 10 on day 30.
In the case of `Cc1cc(N/N=C/c2ccccn2)nc2ccccc12`, the survivor count (T/C endpoint: median tumor weight change, dose: 500.0 mg/kg/injection, schedule: Q01DX001 (ip), vehicle: Klucel (hydroxypropylcellulose) (HPC)) is reported as 0 of 10 on day 25.
In the case of `COC1/C=C\C=C(/C)C(=O)NC2=CC(=O)C=C(C2=O)C(OC)C(C)CC(OC)C(OC)C(C)/C=C(/C)C1OC(N)=O` (stereo unspecified), the survivor count (T/C endpoint: median tumor weight change, dose: 7.5 mg/kg/injection, schedule: Q01DX001 (ip), vehicle: Klucel (hydroxypropylcellulose) (HPC)) is reported as 0 of 10 on day 31, the survivor count (T/C endpoint: median tumor weight change, dose: 15.0 mg/kg/injection, schedule: Q01DX001 (ip), vehicle: Klucel (hydroxypropylcellulose) (HPC)) is reported as 0 of 10 on day 31 and the survivor count (T/C endpoint: median tumor weight change, dose: 30.0 mg/kg/injection, schedule: Q01DX001 (ip), vehicle: Klucel (hydroxypropylcellulose) (HPC)) is reported as 0 of 10 on day 31.
`C[CH2][Ge]1([CH2]C)[CH2]CC2(CCN(CCCN(C)C)C2)C[CH2]1` was tested, and the T/C (T/C endpoint: median tumor weight (est.), dose: 16.0 mg/kg/injection, schedule: Q07DX005 (ip), vehicle: saline, evaluated on day 30) was 142 % of control, the survivor count (T/C endpoint: median tumor weight (est.), dose: 128.0 mg/kg/injection, schedule: Q07DX005 (ip), vehicle: saline) was 1 of 10 on day 30 and 5 of 10 on day 30 and the survivor count (T/C endpoint: median tumor weight (est.), dose: 256.0 mg/kg/injection, schedule: Q07DX005 (ip), vehicle: saline) was 0 of 10 on day 30.
For `C[C@]12CC[C@H](O)CC1=CC[C@@H]1[C@@H]2CC[C@]2(C)C(=O)CC[C@@H]12`, the T/C [3] was 144 % of control.
With `O=C1C=C(C2OC(CO)C(O)C2O)C(=O)N1` (stereo unspecified) the T/C (T/C endpoint: median tumor weight (est.), dose: 3.13 mg/kg/injection, schedule: Q07DX005 (ip), vehicle: saline, evaluated on day 30) was 140 % of control, the survivor count (T/C endpoint: median tumor weight (est.), dose: 12.5 mg/kg/injection, schedule: Q07DX005 (ip), vehicle: saline) was 6 of 10 on day 30 and the survivor count (T/C endpoint: median tumor weight (est.), dose: 25.0 mg/kg/injection, schedule: Q07DX005 (ip), vehicle: saline) was 0 of 10 on day 30. The survivor count (T/C endpoint: median tumor weight (est.), dose: 50.0 mg/kg/injection, schedule: Q07DX005 (ip), vehicle: saline) was 0 of 10 on day 30.

Source: PubChem BioAssay AID220 (DTP/NCI, 2004)
